Results from the supplement of paper PMC10849652.
The list shows a part of the results.

Sequences of proteins named here, by UniProt entry; tags and fusion partners are left off. A change or cut given only in a name is not applied to a line headed by its entry.
UniProt O75431: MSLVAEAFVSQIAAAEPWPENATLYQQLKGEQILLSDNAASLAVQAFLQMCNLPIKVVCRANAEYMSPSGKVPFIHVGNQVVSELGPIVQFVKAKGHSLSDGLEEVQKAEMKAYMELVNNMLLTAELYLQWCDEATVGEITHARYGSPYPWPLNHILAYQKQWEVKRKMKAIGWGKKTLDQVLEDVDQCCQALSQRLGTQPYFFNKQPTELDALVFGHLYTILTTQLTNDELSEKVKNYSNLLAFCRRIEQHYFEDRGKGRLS
UniProt Q9HD23: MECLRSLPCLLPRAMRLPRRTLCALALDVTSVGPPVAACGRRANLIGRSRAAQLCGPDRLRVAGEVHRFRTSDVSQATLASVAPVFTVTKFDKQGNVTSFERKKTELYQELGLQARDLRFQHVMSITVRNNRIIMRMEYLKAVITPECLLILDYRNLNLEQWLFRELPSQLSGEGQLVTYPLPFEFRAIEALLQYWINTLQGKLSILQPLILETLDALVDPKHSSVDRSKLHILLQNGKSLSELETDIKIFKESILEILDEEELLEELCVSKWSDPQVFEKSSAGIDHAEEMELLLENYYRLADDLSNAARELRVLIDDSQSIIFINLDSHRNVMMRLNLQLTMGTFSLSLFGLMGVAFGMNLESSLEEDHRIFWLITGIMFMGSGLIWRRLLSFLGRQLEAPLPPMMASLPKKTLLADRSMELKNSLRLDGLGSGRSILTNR
UniProt Q93083: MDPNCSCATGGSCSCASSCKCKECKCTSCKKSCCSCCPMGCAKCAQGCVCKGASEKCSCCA
UniProt P03923, whole entry, looked up: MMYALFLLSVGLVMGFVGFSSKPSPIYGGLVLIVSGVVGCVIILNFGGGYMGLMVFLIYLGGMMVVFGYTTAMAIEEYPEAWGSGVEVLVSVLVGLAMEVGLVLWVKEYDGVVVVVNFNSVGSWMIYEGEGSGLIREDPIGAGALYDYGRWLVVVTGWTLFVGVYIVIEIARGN
UniProt Q8N5Y2: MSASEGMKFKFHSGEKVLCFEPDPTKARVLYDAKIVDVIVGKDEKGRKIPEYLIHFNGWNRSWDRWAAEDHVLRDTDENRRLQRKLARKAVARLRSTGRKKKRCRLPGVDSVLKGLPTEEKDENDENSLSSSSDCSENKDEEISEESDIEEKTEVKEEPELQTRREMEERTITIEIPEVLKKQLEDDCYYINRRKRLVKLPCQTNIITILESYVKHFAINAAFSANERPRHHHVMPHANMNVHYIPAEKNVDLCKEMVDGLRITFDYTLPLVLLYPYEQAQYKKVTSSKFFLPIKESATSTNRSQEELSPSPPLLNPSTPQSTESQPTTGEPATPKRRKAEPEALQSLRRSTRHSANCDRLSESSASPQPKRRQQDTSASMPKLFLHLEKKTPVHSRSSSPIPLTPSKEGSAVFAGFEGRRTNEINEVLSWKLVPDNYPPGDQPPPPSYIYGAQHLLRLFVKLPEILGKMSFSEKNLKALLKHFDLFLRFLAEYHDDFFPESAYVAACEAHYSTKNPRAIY
UniProt Q969V6: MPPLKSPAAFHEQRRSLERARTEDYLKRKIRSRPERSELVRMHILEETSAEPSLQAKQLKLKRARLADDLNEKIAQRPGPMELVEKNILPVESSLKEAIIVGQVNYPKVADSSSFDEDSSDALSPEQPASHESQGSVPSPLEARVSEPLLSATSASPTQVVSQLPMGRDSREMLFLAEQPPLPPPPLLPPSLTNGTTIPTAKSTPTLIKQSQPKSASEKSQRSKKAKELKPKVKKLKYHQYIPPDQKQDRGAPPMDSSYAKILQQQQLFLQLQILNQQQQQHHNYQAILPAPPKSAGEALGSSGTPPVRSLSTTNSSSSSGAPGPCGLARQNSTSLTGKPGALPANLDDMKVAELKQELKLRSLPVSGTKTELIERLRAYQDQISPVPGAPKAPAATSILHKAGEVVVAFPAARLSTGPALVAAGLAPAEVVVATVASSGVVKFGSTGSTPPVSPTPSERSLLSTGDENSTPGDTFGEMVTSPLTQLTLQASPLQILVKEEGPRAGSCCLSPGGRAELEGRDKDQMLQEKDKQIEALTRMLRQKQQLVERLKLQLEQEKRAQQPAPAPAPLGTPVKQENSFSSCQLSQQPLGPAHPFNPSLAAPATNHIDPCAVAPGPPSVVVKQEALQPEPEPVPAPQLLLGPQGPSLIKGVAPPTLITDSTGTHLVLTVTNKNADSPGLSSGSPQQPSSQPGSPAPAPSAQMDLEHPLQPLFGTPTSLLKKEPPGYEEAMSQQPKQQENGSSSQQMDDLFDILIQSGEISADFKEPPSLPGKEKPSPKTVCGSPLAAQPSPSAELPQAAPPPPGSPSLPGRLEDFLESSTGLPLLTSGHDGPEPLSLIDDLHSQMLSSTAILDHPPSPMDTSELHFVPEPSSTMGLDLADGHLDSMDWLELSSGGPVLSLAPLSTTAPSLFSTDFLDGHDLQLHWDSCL
UniProt P00414, whole entry, looked up: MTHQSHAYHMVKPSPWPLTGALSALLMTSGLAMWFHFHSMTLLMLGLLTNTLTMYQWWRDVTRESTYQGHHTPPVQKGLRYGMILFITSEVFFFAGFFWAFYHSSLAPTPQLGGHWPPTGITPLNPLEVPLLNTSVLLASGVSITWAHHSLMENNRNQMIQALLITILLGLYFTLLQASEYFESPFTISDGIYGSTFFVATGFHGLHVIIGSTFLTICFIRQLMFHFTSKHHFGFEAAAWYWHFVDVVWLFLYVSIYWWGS
UniProt P26038, whole entry, looked up: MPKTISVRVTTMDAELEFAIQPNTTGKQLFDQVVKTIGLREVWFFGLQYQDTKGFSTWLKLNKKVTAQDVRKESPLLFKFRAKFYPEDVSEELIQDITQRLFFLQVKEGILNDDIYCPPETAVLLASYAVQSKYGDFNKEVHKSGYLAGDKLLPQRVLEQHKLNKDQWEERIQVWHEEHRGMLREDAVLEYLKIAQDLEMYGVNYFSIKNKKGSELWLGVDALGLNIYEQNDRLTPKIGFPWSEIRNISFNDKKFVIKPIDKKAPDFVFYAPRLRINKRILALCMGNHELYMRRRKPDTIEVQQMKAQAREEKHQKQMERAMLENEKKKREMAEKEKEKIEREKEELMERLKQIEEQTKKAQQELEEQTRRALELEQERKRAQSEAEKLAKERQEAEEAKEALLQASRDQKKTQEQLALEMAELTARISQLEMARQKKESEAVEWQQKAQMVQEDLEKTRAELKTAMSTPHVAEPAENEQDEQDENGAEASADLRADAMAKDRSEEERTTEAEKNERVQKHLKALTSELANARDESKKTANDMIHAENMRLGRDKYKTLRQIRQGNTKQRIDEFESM
UniProt P03928: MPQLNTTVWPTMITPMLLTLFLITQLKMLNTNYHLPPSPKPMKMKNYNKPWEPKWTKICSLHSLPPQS
UniProt O75570: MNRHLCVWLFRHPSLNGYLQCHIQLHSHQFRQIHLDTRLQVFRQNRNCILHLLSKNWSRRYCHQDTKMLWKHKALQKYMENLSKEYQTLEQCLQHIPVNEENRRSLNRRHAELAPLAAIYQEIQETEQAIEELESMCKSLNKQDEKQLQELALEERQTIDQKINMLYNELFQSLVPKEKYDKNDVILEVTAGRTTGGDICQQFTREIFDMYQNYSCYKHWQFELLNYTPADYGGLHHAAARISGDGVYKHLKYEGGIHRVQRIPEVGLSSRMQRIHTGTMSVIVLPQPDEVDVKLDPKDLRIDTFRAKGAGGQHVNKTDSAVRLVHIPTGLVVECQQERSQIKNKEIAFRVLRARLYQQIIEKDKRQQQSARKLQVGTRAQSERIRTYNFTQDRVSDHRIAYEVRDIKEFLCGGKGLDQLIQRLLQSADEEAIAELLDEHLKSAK
UniProt Q9H019: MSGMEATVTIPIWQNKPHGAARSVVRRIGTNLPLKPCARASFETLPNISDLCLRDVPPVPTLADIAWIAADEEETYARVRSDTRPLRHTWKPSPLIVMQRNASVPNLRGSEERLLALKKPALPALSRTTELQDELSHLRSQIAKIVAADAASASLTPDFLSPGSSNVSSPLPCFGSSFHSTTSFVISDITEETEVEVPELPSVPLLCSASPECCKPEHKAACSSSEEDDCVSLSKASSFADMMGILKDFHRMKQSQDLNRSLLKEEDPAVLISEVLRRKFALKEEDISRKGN
UniProt Q9H2K0, whole entry, looked up: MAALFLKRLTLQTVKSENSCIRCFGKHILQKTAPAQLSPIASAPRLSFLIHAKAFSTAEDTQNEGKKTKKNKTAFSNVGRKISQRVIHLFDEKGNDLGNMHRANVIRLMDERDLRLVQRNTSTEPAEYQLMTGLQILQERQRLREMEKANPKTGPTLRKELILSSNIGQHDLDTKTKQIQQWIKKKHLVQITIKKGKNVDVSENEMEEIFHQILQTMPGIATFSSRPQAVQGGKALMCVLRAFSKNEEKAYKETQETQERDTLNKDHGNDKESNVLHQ
UniProt Q9NXD2: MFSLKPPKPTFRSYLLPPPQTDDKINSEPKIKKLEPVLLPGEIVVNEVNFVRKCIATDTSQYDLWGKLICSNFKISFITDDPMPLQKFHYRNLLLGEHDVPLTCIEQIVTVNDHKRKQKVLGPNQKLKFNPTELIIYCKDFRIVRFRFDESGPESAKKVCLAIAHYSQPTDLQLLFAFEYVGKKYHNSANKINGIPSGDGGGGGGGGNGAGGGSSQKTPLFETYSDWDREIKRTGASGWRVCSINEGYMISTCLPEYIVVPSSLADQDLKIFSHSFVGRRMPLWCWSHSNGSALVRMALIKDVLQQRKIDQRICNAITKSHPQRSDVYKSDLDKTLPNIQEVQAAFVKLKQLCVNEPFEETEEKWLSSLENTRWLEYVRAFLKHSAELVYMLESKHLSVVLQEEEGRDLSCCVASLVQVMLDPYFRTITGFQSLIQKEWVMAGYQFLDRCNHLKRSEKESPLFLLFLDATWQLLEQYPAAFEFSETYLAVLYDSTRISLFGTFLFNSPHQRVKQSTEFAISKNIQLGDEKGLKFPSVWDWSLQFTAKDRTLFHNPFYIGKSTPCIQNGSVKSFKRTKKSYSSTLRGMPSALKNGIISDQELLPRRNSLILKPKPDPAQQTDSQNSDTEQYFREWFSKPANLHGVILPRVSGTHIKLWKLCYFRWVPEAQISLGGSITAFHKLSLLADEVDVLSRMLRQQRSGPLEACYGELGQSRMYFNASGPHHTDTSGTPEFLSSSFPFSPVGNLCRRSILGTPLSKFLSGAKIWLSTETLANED
UniProt Q9H903: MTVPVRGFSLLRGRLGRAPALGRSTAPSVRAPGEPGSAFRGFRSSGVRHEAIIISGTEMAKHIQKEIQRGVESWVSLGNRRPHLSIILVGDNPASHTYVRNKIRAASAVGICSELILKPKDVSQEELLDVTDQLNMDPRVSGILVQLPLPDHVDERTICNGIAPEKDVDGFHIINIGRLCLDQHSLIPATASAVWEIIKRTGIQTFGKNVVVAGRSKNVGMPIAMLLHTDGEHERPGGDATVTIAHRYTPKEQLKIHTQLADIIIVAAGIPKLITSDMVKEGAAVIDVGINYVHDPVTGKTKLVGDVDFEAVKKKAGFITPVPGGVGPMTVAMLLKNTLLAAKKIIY
UniProt Q96EF0: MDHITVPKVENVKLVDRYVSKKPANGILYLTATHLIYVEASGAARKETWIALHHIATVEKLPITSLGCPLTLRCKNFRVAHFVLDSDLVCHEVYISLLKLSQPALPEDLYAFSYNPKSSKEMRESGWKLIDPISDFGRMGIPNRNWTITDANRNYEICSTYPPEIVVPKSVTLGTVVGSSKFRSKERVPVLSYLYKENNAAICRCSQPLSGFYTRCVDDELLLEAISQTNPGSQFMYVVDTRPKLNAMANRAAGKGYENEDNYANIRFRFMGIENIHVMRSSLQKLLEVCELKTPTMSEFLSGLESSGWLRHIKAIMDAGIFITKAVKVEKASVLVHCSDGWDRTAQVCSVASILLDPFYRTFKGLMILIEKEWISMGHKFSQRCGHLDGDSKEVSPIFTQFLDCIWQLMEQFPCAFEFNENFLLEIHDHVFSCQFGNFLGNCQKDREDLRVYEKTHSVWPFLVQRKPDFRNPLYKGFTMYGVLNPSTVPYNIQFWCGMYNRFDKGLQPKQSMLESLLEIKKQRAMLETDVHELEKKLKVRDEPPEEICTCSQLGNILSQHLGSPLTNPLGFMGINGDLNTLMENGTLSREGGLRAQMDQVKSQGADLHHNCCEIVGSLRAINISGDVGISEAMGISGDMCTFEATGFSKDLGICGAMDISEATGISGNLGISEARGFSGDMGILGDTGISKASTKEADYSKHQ
UniProt Q49AM1: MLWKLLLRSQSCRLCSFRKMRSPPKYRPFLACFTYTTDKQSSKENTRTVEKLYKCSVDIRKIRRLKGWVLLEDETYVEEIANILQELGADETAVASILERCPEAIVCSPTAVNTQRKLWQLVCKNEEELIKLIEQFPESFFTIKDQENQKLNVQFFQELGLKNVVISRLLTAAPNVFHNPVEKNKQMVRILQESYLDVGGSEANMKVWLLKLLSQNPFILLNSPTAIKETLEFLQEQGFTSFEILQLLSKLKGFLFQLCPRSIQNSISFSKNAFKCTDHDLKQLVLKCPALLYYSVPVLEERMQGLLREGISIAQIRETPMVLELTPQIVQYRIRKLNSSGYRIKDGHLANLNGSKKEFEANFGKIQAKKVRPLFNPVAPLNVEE

Assays:
Test in all cases: log2 fold change, soluble protein after heating vs DMSO (PISA); higher = thermal stabilisation; K562 lysate, 10 uM; active = over 0.2 and 3.5 SD of the protein, either way, in both replicates (recomputed)
dasatinib = compound: Cc1nc(Nc2ncc(C(=O)Nc3c(C)cccc3Cl)s2)cc(N2CCN(CCO)CC2)n1 [dasatinib]
Summary of the method: (§1)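 Log-two fold change in thermal stability relative to solvent controls is reported from duplicates. For each sample, crude K562 extract from dounce-homogenised pellets in PBS pH 7.4 with 1 mM MgCl2, at 1 mg/mL protein, was treated with 10 μM compound for 30 min. Aliquots heated for 3 min across 48°C-58°C were pooled, brought to 0.5% NP-40 at 4°C and cleared at 21,000xg for 90 min. The supernatant was quantified by TMTpro 16plex LC-MS/MS with channel sums equalised.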

[1] = compound: Cn1cc(-c2ccc3c(c2)CCN3C(=O)Cc2cccc(C(F)(F)F)c2)c2c(N)ncnc21
Summary of the method: as §1

quisinostat = compound: Cn1cc(CNCC2CCN(c3ncc(C(=O)NO)cn3)CC2)c2ccccc21 [quisinostat]
Summary of the method: as §1

[2] = compound: NC(=O)Nc1cc(-c2cccc(F)c2)sc1C(=O)N[C@H]1CCCNC1
Summary of the method: as §1

[3] = compound: NC(=O)c1cnc(N[C@@H]2CCCC[C@@H]2N)nc1Nc1cccc(-n2nccn2)c1
Summary of the method: as §1

[4] = compound: NC1(c2ccc(-c3nc4ccn5c(=O)[nH]nc5c4cc3-c3ccccc3)cc2)CCC1
Summary of the method: as §1

nilotinib = compound: Cc1cn(-c2cc(NC(=O)c3ccc(C)c(Nc4nccc(-c5cccnc5)n4)c3)cc(C(F)(F)F)c2)cn1 [nilotinib]
Summary of the method: as §1

[5] = compound: Cc1nc(Nc2n[nH]c3c2CN(C(=O)N[C@H](CN(C)C)c2ccccc2)C3(C)C)c2sccc2n1
Summary of the method: as §1

[6] = compound: Cc1ncc(-c2ccnc(Nc3ccc(S(C)(=O)=O)cc3)n2)n1C(C)C
Summary of the method: as §1

tipifarnib = compound: Cn1cncc1[C@@](N)(c1ccc(Cl)cc1)c1ccc2c(c1)c(-c1cccc(Cl)c1)cc(=O)n2C [tipifarnib]
Summary of the method: as §1

Measured: log2 fold change

MRPL34 (UniProt Q9BQ48)
inactive: dasatinib -0.013 | [1] 0.055 | quisinostat -0.011 | [2] 0.005 | [3] -0.036

MTCL1 (UniProt Q9Y4B5)
inactive: dasatinib -0.017 | [1] -0.028 | quisinostat -0.087 | [2] 0.011 | [3] 0.078 | [4] -0.016

MTG1 (UniProt Q9BT17)
inactive: nilotinib -0.057 | [5] 0.224 | [6] 0.129 | tipifarnib -0.076

MTHFD1 (UniProt V9GZ32)
inactive: nilotinib -0.43 | [5] -0.802 | [6] -0.041 | tipifarnib 0.188 | [3] -0.185

MRPL37 (UniProt Q9BZE1)
inactive: nilotinib -0.004 | [5] -0.002 | dasatinib -0.034 | [6] -0.043 | [1] 0.015 | quisinostat -0.051 | tipifarnib -0.005 | [2] 0.032 | [3] 0.017 | [4] -0.023

MRPL45 (UniProt Q9BRJ2)
inactive: nilotinib -0.122 | [5] 0.019 | dasatinib -0.018 | [6] 0.036 | [1] 0.012 | quisinostat -0.038 | tipifarnib -0.049 | [2] 0.072 | [3] -0.017 | [4] 0.002

MTX2 (UniProt O75431)
inactive: nilotinib 0.025 | [5] -0.018 | dasatinib -0.024 | [6] 0.004 | [1] -0.007 | quisinostat 0.052 | tipifarnib 0.01 | [2] 0.015 | [3] -0.023 | [4] -0.009

MRS2 isoform 2 (UniProt Q9HD23)
inactive: nilotinib 0.093 | [5] -0.041 | [6] -0.166 | quisinostat -0.126 | tipifarnib 0.097 | [2] -0.01

MT1L (UniProt Q93083)
inactive: quisinostat 0.145 | [2] -0.037

MT-ND6 (UniProt P03923)
inactive: quisinostat -0.352 | [2] 0.009 | [3] 0.057 | [4] 0.05

MTURN (UniProt Q8N3F0)
inactive: dasatinib 0.051 | [1] 0.027 | quisinostat 0.014 | [2] 0.015

MTHFR (UniProt F8W9T8)
inactive: nilotinib -0.079 | [5] -0.103 | [6] 0.228 | tipifarnib 0.001

MSL3 (UniProt Q8N5Y2)
inactive: nilotinib -0.116 | [5] -0.023 | dasatinib 0.137 | [6] 0.122 | [1] -0.149 | quisinostat -0.126 | tipifarnib 0.033 | [2] -0.089 | [4] 0.014

MSL2 (UniProt Q9HCI7)
inactive: nilotinib -0.103 | [5] -0.002 | [6] 0.127 | quisinostat -0.033 | tipifarnib 0.144 | [2] 0.008 | [4] 0.024

MRTFA (UniProt Q969V6)
inactive: nilotinib 0.075 | [5] -0.096 | dasatinib 0.254 | [6] 0.156 | [1] -0.118 | quisinostat 0.04 | tipifarnib -0.144 | [2] 0.003 | [4] 0.039

MS4A3 (UniProt Q96HJ5)
inactive: quisinostat -0.233 | [2] -0.042 | [3] -0.054

MUC19 (UniProt Q7Z5P9)
inactive: [3] 0.001

MT-CO3 (UniProt P00414)
inactive: dasatinib -0.095 | [1] -0.469

MTRES1 (UniProt Q9P0P8)
inactive: nilotinib -0.066 | [5] 0.015 | dasatinib 0.132 | [6] 0.049 | [1] -0.026 | quisinostat -0.139 | tipifarnib -0.084 | [2] 0.065 | [3] 0 | [4] 0.009

MTPAP (UniProt Q9NVV4)
inactive: nilotinib -0.035 | [5] 0.012 | dasatinib -0.063 | [6] 0.012 | [1] 0.093 | quisinostat 0.04 | tipifarnib 0.071 | [2] -0.003 | [3] -0.005 | [4] 0.02

MRPL9 (UniProt Q9BYD2)
inactive: nilotinib 0.067 | [5] -0.102 | dasatinib -0.065 | [6] 0.012 | [1] -0.033 | quisinostat -0.035 | tipifarnib -0.012 | [2] 0.05 | [3] 0.023 | [4] -0.048

MSN (UniProt P26038)
inactive: nilotinib -0.012 | [5] -0.01 | dasatinib -0.012 | [6] -0.009 | [1] -0.009 | quisinostat 0.064 | tipifarnib 0.03 | [2] -0.011 | [3] 0.006 | [4] 0.018

MT-ATP8 (UniProt P03928)
inactive: nilotinib 0.055 | [5] 0.177 | [6] 0.214 | quisinostat 0.043 | tipifarnib 0.085 | [2] 0.056 | [3] -0.067 | [4] -0.084

MSANTD2 (UniProt Q6P1R3)
inactive: dasatinib -0.136 | [1] -0.011 | quisinostat -0.01 | [2] -0.059 | [4] 0.013

MTRF1 isoform 2 (UniProt O75570)
inactive: quisinostat -0.133 | [2] -0.105

MTO1 isoform 4 (UniProt Q9Y2Z2)
inactive: nilotinib -0.009 | [5] -0.066 | dasatinib -0.031 | [6] -0.024 | [1] 0.073 | quisinostat -0.057 | tipifarnib 0.033 | [2] 0.057 | [4] -0.046

MTFR1L (UniProt Q9H019)
inactive: nilotinib -0.019 | [5] 0.043 | dasatinib -0.115 | [6] 0.006 | [1] -0.029 | quisinostat -0.043 | tipifarnib -0.092 | [2] 0 | [3] -0.08 | [4] 0.129

MTIF3 (UniProt Q9H2K0)
inactive: nilotinib 0.108 | [5] -0.019 | dasatinib -0.113 | [6] 0.026 | [1] -0.049 | tipifarnib 0.035 | [3] 0.052 | [4] -0.029

Taken from the results shown (two entries):
MTFR1L (UniProt Q9H019)
inactive: nilotinib -0.019 | [5] 0.043 | dasatinib -0.115 | [6] 0.006 | [1] -0.029 | quisinostat -0.043 | tipifarnib -0.092 | [2] 0 | [3] -0.08 | [4] 0.129

MTIF3 (UniProt Q9H2K0)
inactive: nilotinib 0.108 | [5] -0.019 | dasatinib -0.113 | [6] 0.026 | [1] -0.049 | tipifarnib 0.035 | [3] 0.052 | [4] -0.029

Next part

MTMR10 (UniProt Q9NXD2)
inactive: nilotinib -0.168 | [5] 0.019 | dasatinib 0.074 | [6] 0.017 | [1] -0.141 | quisinostat 0.004 | tipifarnib -0.038 | [2] 0.094 | [3] 0.051 | [4] 0.07

MTHFD2L (UniProt Q9H903)
inactive: quisinostat 0.155 | [2] -0.164 | [4] 0.28

MTMR8 (UniProt Q96EF0)
inactive: dasatinib -0.102 | [1] 0.054 | [4] 0.06

MTERF2 (UniProt Q49AM1)
inactive: dasatinib 0.015 | [1] -0.046 | quisinostat 0.144 | [2] -0.196 | [4] -0.094
